Source: ChEMBL document CHEMBL3988442, “University of Dundee, Small-Polar-MMV Screening Library” (2021).

By UniProt entry, the sequences of proteins in these tests, tags left out. Residues count along the entry.
UniProt P9WPC5, whole entry: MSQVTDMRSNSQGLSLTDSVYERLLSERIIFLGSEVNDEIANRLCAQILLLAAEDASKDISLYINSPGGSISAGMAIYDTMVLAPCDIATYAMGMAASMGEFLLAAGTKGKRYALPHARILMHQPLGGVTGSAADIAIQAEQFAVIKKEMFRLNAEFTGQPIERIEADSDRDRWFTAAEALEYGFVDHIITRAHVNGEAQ
UniProt P9WPC3, whole entry partner: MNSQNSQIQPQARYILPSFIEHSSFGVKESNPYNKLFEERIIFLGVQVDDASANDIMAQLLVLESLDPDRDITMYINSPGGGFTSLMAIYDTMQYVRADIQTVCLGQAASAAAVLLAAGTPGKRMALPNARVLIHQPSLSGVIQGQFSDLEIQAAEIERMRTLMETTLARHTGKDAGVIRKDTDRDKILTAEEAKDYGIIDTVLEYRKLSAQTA
UniProt Q4DA54, 1-478: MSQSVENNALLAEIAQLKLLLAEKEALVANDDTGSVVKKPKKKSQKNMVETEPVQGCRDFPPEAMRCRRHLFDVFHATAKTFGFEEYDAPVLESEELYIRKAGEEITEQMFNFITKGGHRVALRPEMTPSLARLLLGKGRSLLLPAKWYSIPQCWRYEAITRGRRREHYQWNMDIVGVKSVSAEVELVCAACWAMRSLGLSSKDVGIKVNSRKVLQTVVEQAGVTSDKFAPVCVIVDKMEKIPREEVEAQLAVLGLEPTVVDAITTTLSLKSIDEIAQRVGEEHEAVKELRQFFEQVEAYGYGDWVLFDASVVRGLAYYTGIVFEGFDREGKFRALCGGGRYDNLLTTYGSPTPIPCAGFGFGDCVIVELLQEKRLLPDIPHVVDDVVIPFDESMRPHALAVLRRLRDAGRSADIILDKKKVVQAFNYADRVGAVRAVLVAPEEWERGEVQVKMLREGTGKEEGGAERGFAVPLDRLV
UniProt I6X8D2, whole entry: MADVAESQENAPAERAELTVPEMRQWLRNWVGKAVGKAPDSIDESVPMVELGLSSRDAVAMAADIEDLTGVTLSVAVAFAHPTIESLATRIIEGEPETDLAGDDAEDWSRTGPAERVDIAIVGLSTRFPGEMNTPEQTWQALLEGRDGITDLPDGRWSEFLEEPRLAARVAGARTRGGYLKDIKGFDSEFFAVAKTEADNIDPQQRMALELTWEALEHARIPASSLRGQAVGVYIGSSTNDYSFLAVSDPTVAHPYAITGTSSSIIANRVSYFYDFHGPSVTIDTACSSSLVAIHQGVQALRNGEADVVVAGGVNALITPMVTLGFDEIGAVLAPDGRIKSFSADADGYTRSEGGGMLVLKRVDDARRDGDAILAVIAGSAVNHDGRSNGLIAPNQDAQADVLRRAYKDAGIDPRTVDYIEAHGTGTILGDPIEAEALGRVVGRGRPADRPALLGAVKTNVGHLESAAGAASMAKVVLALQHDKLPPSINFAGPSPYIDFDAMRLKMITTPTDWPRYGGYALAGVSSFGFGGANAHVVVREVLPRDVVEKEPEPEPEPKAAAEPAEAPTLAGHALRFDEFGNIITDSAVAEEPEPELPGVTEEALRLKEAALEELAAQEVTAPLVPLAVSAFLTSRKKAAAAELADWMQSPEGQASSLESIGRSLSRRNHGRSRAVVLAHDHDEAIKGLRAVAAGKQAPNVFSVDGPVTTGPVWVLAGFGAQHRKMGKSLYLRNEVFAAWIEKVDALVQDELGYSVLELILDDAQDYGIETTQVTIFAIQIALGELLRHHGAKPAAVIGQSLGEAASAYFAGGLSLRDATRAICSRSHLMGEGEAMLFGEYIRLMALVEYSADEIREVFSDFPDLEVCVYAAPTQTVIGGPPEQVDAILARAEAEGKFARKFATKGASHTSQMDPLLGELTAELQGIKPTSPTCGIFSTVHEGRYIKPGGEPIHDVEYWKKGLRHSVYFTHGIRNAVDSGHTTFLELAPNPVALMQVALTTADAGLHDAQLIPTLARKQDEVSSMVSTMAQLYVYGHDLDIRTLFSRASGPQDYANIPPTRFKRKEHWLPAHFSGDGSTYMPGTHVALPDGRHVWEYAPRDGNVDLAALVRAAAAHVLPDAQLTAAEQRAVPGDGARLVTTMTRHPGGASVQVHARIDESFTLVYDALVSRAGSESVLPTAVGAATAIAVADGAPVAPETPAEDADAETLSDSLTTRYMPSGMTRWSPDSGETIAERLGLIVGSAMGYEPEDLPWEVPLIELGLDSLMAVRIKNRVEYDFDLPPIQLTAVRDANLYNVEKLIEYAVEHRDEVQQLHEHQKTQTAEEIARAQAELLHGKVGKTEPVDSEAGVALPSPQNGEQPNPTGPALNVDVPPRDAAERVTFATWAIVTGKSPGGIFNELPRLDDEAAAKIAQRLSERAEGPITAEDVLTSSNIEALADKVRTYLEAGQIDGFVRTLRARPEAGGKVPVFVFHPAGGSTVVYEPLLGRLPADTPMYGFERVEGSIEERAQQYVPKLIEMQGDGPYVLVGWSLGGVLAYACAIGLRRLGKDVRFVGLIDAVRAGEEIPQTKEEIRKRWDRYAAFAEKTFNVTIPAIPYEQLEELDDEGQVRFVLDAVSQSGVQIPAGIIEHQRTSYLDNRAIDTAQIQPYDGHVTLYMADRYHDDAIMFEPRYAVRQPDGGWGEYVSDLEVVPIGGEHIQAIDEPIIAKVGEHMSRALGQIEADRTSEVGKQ
UniProt Q8IDJ8, 1-583: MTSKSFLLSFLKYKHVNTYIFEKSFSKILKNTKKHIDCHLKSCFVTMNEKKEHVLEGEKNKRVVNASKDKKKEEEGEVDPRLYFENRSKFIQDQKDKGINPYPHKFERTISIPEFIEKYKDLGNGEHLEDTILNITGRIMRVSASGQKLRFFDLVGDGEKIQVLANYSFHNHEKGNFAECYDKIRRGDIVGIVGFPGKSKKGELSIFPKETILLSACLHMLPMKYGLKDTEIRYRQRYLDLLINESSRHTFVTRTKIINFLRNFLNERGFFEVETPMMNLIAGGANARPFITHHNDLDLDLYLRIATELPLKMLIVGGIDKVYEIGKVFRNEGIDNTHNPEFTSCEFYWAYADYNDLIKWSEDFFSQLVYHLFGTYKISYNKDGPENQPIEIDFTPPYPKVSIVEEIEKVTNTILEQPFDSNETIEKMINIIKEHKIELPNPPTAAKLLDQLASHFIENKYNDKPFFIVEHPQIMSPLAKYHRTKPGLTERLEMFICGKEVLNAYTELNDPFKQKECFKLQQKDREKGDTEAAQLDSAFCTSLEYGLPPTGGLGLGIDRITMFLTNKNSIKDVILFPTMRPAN

The filed quantity is “Percent Effect” (%).
The record does not define 0% and 100%; most values in the screen are far below 50% and negative numbers occur (in some assays of this library far below -100).
The compounds are a random part of those screened.
A dash means the value is not listed here; it may have been measured.

ClpP1P2: 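ClpP1P2, Mycobacterium tuberculosis (UniProt P9WPC5 and UniProt P9WPC3). Protease assay of ClpP1P2, read by the AMC dye that it sets free. Compounds at 50 µM. Higher reads as stronger inhibition, judged from the few compounds that gave an IC50. Most other retested compounds had strongly negative values. Size under these conditions: about 69,000 compounds, about 10 of them at 50% or above in at least one test.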
Toxoplasma: 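Assay of Toxoplasma gondii numbers, read through their beta-galactosidase reporter with a colour substrate. Tested at 10 µM. The record gives no direction; the compounds picked for IC50 retests had high values, so higher reads as fewer parasites. About 67,000 compounds were tested under these conditions; 0.38% (about 260) showed 50% or more at least once.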
TcHisRS: 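Histidine-tRNA ligase, Trypanosoma cruzi CL Brener (UniProt Q4DA54). Enzyme assay of histidyl-tRNA synthetase; the read-out is not stated. Concentration: 30 µM. The record gives no direction; compounds that gave an IC50 in retests scored well above the rest, so higher reads as stronger inhibition. Size under these conditions: about 69,000 compounds, about 31 of them at 50% or above in at least one test.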
Pks13 thioesterase: 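Enzyme assay of the thioesterase domain of polyketide synthase 13; the read-out is not stated. Target: Polyketide synthase Pks13, Mycobacterium tuberculosis (UniProt I6X8D2). Tested at 30 µM. Higher reads as stronger inhibition (inferred from which compounds were picked for retests). Size under these conditions: about 67,000 compounds, about 300 of them at 50% or above in at least one test.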
PfKRS1: 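Enzyme assay of the cytosolic lysyl-tRNA synthetase in 384-well plates, read by luminescence. Target: Lysine-tRNA ligase, Plasmodium falciparum 3D7 (UniProt Q8IDJ8). Concentration: 30 µM. Higher reads as stronger inhibition, judged from the few compounds that gave an IC50. Of about 69,000 compounds tested this way, about 49 (0.071%) reached 50% or more in at least one test.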

SMILES | ClpP1P2 | Toxoplasma | TcHisRS | Pks13 thioesterase | PfKRS1
O=C1COC2(CCN(C(=O)c3ccoc3)CC2)CN1Cc1cccnc1 | -8.67 | -1.542 | 0.4808 | -0.6 | 1.447
Cc1cnn(CC2CCCN2C(=O)c2ccc(F)c(F)c2)c1 (centres unmarked) | -10.37 | 11.59 | 5.413 | -13.95 | 1.407
CCCc1nc(C)c(CNc2nc(C)nc3onc(C)c23)s1 | 4.921 | 7.202 | 4.598 | 15.27 | 2.551
Nc1nc(C2CCN(C(=O)c3cscn3)CC2)cs1 | 11.84 | -2.607 | 3.825 | -27.82 | 3.301
O=S(=O)(c1cccc(Cl)c1)N1C[C@@H]2CCN[C@@H]2C1 | -3.082 | - | 4.854 | -28.26 | 2.73
COC(=O)c1oc(CNC(C)(C)c2ccc3c(c2)OCO3)cc1C | -0.7055 | 4.543 | 7.071 | -18.06 | 1.369
CCCc1n[nH]c(C2CN(CCCS(C)(=O)=O)CCO2)n1 (centres unmarked) | 4.547 | 7.368 | 2.632 | -14.78 | 2.299
CN(C)CCN(C)C(=O)c1cnc2c(c1)nc(-c1ccccc1Cl)n2C | 2.748 | 0.2658 | 0 | -5.912 | 4.301
CCN(CC)S(=O)(=O)NC(=O)c1cc(C)n(-c2ccccc2)n1 | -4.798 | 1.308 | 5.419 | 32.12 | 0.4417
COc1c(CNCc2ccccc2Cn2ccnc2)c(C)nn1C | -12.42 | -34.68 | 4.07 | -15.3 | -0.8784
Cc1cnc2c(C(=O)N(C)Cc3cc(C4CC4)[nH]n3)cnn2c1 | 23.09 | 21.83 | 7.921 | 9.677 | -3.631
Cc1noc(C)c1S(=O)(=O)NC(=O)COc1ccc(C(C)C)cc1 | -24.9 | 13.38 | -1.466 | -14.98 | 2.215
COCc1c(C(=O)N2CCCC(N(C)Cc3ccccc3)C2)noc1C (centres unmarked) | -1.145 | -8.31 | 4.444 | -34.91 | -0.2061
Cc1nc(CNC(=O)N2CCN(c3ccc(Cl)cn3)CC2)no1 | -5.156 | 3.295 | 8.333 | 7.544 | 3.455
Clc1ccccc1Cc1noc(CN2CCCC(CN3CCCC3)C2)n1 (centres unmarked) | -33.44 | -3.172 | 30.04 | -22.62 | 7.204
O=C(c1cccnc1O)N1CCCC2(C=Cc3ccccc3O2)CC1 (centres unmarked) | -9.096 | 1.971 | 6.383 | -17.18 | 4.608
CN1Cc2cc(F)ccc2N(CC(O)C(F)(F)F)CCC1=O (centres unmarked) | 11.94 | 6.949 | 3.371 | 7.008 | 6.451
COc1ccc(CC2(C(=O)O)CCN(c3nc(C)ncc3C)CC2)cc1 | -7.778 | - | 13.79 | -10.85 | 2.229
Cc1c(NCC(C)(C)C)cccc1C(=O)NCc1ncnn1C | 6.557 | 6.313 | 6.061 | -18.53 | 2.465
Cc1cnc(N2CC[C@@]3(O)CCCC[C@H]3C2)nc1-c1ccnn1C | -9.475 | - | 2.273 | -31.45 | 1.698
O=c1[nH]c2ccccc2cc1CN(Cc1ccccn1)CC1CCCO1 (centres unmarked) | 1.445 | 8.083 | 0.5405 | -3.975 | -1.866
CCCc1nc(C)cc(N2CCNC(C(=O)NC3CC3)C2)n1 (centres unmarked) | -7.224 | -4.673 | 8.671 | -7.887 | 1.312
CCCn1ncc(C2CC(=O)NCc3nc4cc(C)ccn4c32)c1C (centres unmarked) | 2.001 | 1.959 | 8.427 | 1.862 | 7.712
COc1ccc(CN2CCC3(CC2)CC(CC(=O)NC(C)C)CO3)cc1.O=C(O)C(F)(F)F (centres unmarked) | - | -39.58 | - | - | -
COCCOc1nc(-c2ccccc2Cl)no1 | 0.8956 | 4.858 | 1.84 | 0.8679 | 3.826
CC(C)CCN1C[C@H]2C[C@H](C(=O)Nc3ccccc3)[C@@H](C1)O2 | -3.873 | - | 8.537 | 3.75 | -0.8839
CC(C)CN1CC2(CCN(C(=O)C3CSC(C)(C)C(=O)N3)CC2)CC1=O (centres unmarked) | 9.906 | 0.3236 | 3.185 | 0.4885 | 1.871
O=C(c1ccco1)N1CC[C@@H]2O[C@@H](COCCN3CCCC3)CC[C@@H]21 | 0.5037 | - | 9.244 | -3.236 | -0.5512
Cc1nnc2n1CCN(Cc1ccc3c(c1)OCCO3)C2 | -21.31 | 10.3 | 8.455 | -9.055 | -1.249
COc1ccc(Cl)cc1C(=O)NCc1cnn(C)c1C | -19.32 | -4.944 | 4.464 | -14.11 | 6.527
COc1ccc(C2CC(=O)Nc3c2nc2n3CCCC2)cc1OC (centres unmarked) | -9.804 | -1.164 | 11.57 | 0.4769 | -5.667
Cc1nn(C)c(C)c1CNC(=O)c1cc(NC(=O)C2CC2)n(C)n1 | -5.926 | 56.77 | 0.8696 | -11.17 | 4.849